From PMC10539439 (Pharmacological Reports, 2023)
Several values for one entry are separate records, joined by “and”; a condition that tells them apart may be missing. Identical values can stand only once. The source gives many values for each of these; only a part stands here.

Experiment: Spontaneous activity in the home cage (RFID, TraffiCage)
Format: in vivo, rat
Conditions: hight-fat diet, 5mg/kg
Procedure: Rat spontaneous activity was monitored for 24 h on the 1st and 24th (after multiple administrations of tested compound or vehicle) day of treatment with a radio-frequency identification system (RFID system)—TraffiCage (TSE-Systems, Germany)—transponder-based activity monitoring under group housing. The animals had subcutaneously implanted transponder identification with RFID code, which allowed the presence and time spent in different areas of the home cage to be recorded. The data were collected with a dedicated platform, placed under the home cage, containing five RFID antennas (six cage areas) reading telemetrically the presence of RFID chips and stored for analysis with a dedicated computer program. The animals during the monitoring of spontaneous activity were in home cages and always had free access to food and water.

In the case of `Cl.N=C(N)NN=Cc1c(Cl)cc(O)cc1Cl` [4-OH-Guanabenz, 2-[(2,6-Dichloro-4-hydroxyphenyl)methylene]hydrazinecarboximidamide Hydrochloride], the activity (after 24th administration, hour 1, individual rats) is reported as 821 counts and 278 counts and 276 counts and 359 counts, the activity (after 24th administration, hour 2, individual rats) is reported as 251 counts and 189 counts and 399 counts and 110 counts and the activity (after 24th administration, hour 3, individual rats) is reported as 24 counts and 79 counts and 303 counts and 220 counts. The activity (after 24th administration, hour 4, individual rats) was 8 counts and 57 counts and 92 counts and 647 counts, the activity (after 24th administration, hour 5, individual rats) was 469 counts and 40 counts and 681 counts and 229 counts and the activity (after 24th administration, hour 6, individual rats) was 213 counts and 149 counts and 447 counts and 529 counts. For the same molecule, the activity (after 24th administration, hour 7, individual rats) was 926 counts and 492 counts and 144 counts and 361 counts, the activity (after 24th administration, hour 8, individual rats) was 494 counts and 703 counts and 331 counts and 754 counts and the activity (after 24th administration, hour 9, individual rats) was 339 counts and 426 counts and 593 counts and 224 counts. For the same molecule, the activity (after 24th administration, hour 10, individual rats) was 850 counts and 411 counts and 587 counts and 574 counts, the activity (after 24th administration, hour 11, individual rats) was 603 counts and 621 counts and 889 counts and 501 counts and the activity (after 24th administration, hour 12, individual rats) was 516 counts and 409 counts and 694 counts and 800 counts. For the same molecule, the activity (after 24th administration, hour 13, individual rats) was 208 counts and 1130 counts and 505 counts and 315 counts, the activity (after 24th administration, hour 14, individual rats) was 463 counts and 688 counts and 286 counts and 914 counts and the activity (after 24th administration, hour 15, individual rats) was 694 counts and 250 counts and 88 counts and 1257 counts. For the same molecule, the activity (after 24th administration, hour 16, individual rats) was 677 counts and 514 counts and 374 counts and 206 counts, the activity (after 24th administration, hour 17, individual rats) was 412 counts and 548 counts and 667 counts and 707 counts and the activity (after 24th administration, hour 18, individual rats) was 184 counts and 332 counts and 717 counts and 638 counts. The activity (after 24th administration, hour 19, individual rats) was 136 counts and 114 counts and 250 counts and 631 counts, the activity (after 24th administration, hour 20, individual rats) was 59 counts and 137 counts and 165 counts and 350 counts and the activity (after 24th administration, hour 21, individual rats) was 258 counts and 101 counts and 417 counts and 37 counts. The activity (after 24th administration, hour 22, individual rats) was 85 counts and 269 counts and 650 counts and 104 counts, the activity (after 24th administration, hour 23, individual rats) was 231 counts and 10 counts and 295 counts and 545 counts and the activity (after 24th administration, hour 24, individual rats) was 223 counts and 29 counts and 56 counts and 102 counts. For the same molecule, the activity (after first administration, hour 1, individual rats) was 354 counts and 430 counts and 376 counts and 259 counts and 96 counts, the activity (after first administration, hour 22, individual rats) was 643 counts and 348 counts and 364 counts and 130 counts and 423 counts and the activity (after first administration, hour 23, individual rats) was 386 counts and 487 counts and 293 counts and 723 counts and 7* counts. For the same molecule, the activity (after first administration, hour 24, individual rats) was 347 counts and 65 counts and 276 counts and 197 counts and 96 counts.
